Measurements reported in PubChem BioAssay AID602196 (INSERM, 2012)
Here is a random part of about 23,000 reagents. 455 of them (2%) count as active. 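Active includes both protection and sensitisation; some change values fall well beyond the stated -50 to +50 range.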 Not all columns of the deposit are shown. Not given: the amount of reagent.

Purpose: 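Genes whose knock-down alters cisplatin killing of lung cancer cells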
Cells: human A549 lung cancer cells
Reagent: siRNA pair against human genes
Time to read-out: 48 h transfection before cisplatin; time from cisplatin to read-out not stated
Treatment: cisplatin at a dose killing half of control-siRNA cells; exact dose and duration not given
Measured: 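Shift in cisplatin death relative to control siRNA, from -50 (all cells die) to +50 (no cells die); siRNAs harmful on their own scored 0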
Direction: two-siRNA summed score (-2 to +2): higher = both siRNAs protect from cisplatin killing; -2 means both sensitise; mean protection from cisplatin (shift in death): higher = protection from cisplatin killing
Hit rule: 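Each siRNA scores 0 if harmful alone by LDH or WST-1, otherwise +1 if it reduces and -1 if it increases cisplatin killing; a gene is active when both siRNAs agree (sum +2 or -2)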
Meaning of the calls: active = both siRNAs shift cisplatin killing the same way; inactive = no consistent shift, or siRNA harmful alone

For PARPBP, how do the results read?
two-siRNA summed score (-2 to +2): -1; mean protection from cisplatin (shift in death) (%): -7.9; call: inactive

What is on record for ZNF346?
two-siRNA summed score (-2 to +2): 0; mean protection from cisplatin (shift in death) (%): 8.1; call: inactive

What did the screen give for MID2?
two-siRNA summed score (-2 to +2): 0; mean protection from cisplatin (shift in death) (%): 7.9; call: inactive

For ZFP37, how do the results read?
two-siRNA summed score (-2 to +2): 2; mean protection from cisplatin (shift in death) (%): 12.1; call: active

What is on record for FLT1P1?
two-siRNA summed score (-2 to +2): 0; mean protection from cisplatin (shift in death) (%): 12.4; call: inactive

What is on record for KCTD5?
two-siRNA summed score (-2 to +2): 0; mean protection from cisplatin (shift in death) (%): 3.7; call: inactive

What did the screen give for TBC1D8B?
two-siRNA summed score (-2 to +2): 0; mean protection from cisplatin (shift in death) (%): -4.7; call: inactive

With LOC440847, what does the deposit list?
two-siRNA summed score (-2 to +2): 0; mean protection from cisplatin (shift in death) (%): 6.7; call: inactive

With TRMT10A, what does the deposit list?
two-siRNA summed score (-2 to +2): 0; mean protection from cisplatin (shift in death) (%): -2; call: inactive

With POLD1, what does the deposit list?
two-siRNA summed score (-2 to +2): 0; mean protection from cisplatin (shift in death) (%): -9.6; call: inactive

What is on record for CLP1?
two-siRNA summed score (-2 to +2): 0; mean protection from cisplatin (shift in death) (%): 3.2; call: inactive

With ASB18, how do the results read?
two-siRNA summed score (-2 to +2): 1; mean protection from cisplatin (shift in death) (%): 18.2; call: inactive

Look-ups from above.
ASB18, two-siRNA summed score (-2 to +2): 1
Entry for ZFP37 in “call”: active

The listing continues.
What did the screen give for PLAC9?
two-siRNA summed score (-2 to +2): 0; mean protection from cisplatin (shift in death) (%): 15.2; call: inactive

With SLC16A2, what was measured?
two-siRNA summed score (-2 to +2): 0; mean protection from cisplatin (shift in death) (%): 4; call: inactive

What is on record for DDX54?
two-siRNA summed score (-2 to +2): 1; mean protection from cisplatin (shift in death) (%): 10.5; call: inactive

What did the screen give for PLCD4?
two-siRNA summed score (-2 to +2): 0; mean protection from cisplatin (shift in death) (%): 2.4; call: inactive

What did the screen give for NTRK2?
two-siRNA summed score (-2 to +2): 0; mean protection from cisplatin (shift in death) (%): -12.7; call: inactive

With SMS, what was measured?
two-siRNA summed score (-2 to +2): 0; mean protection from cisplatin (shift in death) (%): -4.9; call: inactive

For LOC440916, what does the deposit list?
two-siRNA summed score (-2 to +2): 1; mean protection from cisplatin (shift in death) (%): 14; call: inactive

How did the screen score MYO1F?
two-siRNA summed score (-2 to +2): 0; mean protection from cisplatin (shift in death) (%): 11.1; call: inactive

How did the screen score SPEF2?
two-siRNA summed score (-2 to +2): 0; mean protection from cisplatin (shift in death) (%): 11.8; call: inactive

What did the screen give for MRPL15?
two-siRNA summed score (-2 to +2): 0; mean protection from cisplatin (shift in death) (%): 7.5; call: inactive

Which result is listed for LOC400214?
two-siRNA summed score (-2 to +2): 0; mean protection from cisplatin (shift in death) (%): 9.5; call: inactive

What is on record for KRI1?
two-siRNA summed score (-2 to +2): 0; mean protection from cisplatin (shift in death) (%): -0.9; call: inactive

For IQCF1, what was measured?
two-siRNA summed score (-2 to +2): 0; mean protection from cisplatin (shift in death) (%): 3; call: inactive

With MINDY2, what was measured?
two-siRNA summed score (-2 to +2): 0; mean protection from cisplatin (shift in death) (%): -5.1; call: inactive

What is on record for SOX11?
two-siRNA summed score (-2 to +2): -1; mean protection from cisplatin (shift in death) (%): -14.5; call: inactive

What did the screen give for NECAB3?
two-siRNA summed score (-2 to +2): 0; mean protection from cisplatin (shift in death) (%): 12.2; call: inactive

With DBF4B, what does the deposit list?
two-siRNA summed score (-2 to +2): 0; mean protection from cisplatin (shift in death) (%): 5.1; call: inactive

With AKT2, what does the deposit list?
two-siRNA summed score (-2 to +2): 0; mean protection from cisplatin (shift in death) (%): 0.6; call: inactive

For KIAA1639, what was measured?
two-siRNA summed score (-2 to +2): 0; mean protection from cisplatin (shift in death) (%): -10.9; call: inactive
